According to the supplement of paper PMC10849652:
This is one part of the list.

By UniProt entry, the sequences of proteins in these tests, tags left out. Where a name states a change or a piece, a line headed by the entry shows the natural chain unless it says otherwise.
UniProt Q9BXS6: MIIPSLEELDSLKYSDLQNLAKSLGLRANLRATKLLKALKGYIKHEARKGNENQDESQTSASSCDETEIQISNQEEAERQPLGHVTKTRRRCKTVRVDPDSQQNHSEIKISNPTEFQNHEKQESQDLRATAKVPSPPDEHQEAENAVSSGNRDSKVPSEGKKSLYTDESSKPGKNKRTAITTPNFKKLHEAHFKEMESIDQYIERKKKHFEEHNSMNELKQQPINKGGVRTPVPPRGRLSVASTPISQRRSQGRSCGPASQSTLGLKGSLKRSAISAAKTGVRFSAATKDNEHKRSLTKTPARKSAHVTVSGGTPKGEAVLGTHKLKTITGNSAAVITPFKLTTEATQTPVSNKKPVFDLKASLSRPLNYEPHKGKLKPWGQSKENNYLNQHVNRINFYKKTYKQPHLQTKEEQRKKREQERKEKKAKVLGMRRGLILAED
UniProt O15294: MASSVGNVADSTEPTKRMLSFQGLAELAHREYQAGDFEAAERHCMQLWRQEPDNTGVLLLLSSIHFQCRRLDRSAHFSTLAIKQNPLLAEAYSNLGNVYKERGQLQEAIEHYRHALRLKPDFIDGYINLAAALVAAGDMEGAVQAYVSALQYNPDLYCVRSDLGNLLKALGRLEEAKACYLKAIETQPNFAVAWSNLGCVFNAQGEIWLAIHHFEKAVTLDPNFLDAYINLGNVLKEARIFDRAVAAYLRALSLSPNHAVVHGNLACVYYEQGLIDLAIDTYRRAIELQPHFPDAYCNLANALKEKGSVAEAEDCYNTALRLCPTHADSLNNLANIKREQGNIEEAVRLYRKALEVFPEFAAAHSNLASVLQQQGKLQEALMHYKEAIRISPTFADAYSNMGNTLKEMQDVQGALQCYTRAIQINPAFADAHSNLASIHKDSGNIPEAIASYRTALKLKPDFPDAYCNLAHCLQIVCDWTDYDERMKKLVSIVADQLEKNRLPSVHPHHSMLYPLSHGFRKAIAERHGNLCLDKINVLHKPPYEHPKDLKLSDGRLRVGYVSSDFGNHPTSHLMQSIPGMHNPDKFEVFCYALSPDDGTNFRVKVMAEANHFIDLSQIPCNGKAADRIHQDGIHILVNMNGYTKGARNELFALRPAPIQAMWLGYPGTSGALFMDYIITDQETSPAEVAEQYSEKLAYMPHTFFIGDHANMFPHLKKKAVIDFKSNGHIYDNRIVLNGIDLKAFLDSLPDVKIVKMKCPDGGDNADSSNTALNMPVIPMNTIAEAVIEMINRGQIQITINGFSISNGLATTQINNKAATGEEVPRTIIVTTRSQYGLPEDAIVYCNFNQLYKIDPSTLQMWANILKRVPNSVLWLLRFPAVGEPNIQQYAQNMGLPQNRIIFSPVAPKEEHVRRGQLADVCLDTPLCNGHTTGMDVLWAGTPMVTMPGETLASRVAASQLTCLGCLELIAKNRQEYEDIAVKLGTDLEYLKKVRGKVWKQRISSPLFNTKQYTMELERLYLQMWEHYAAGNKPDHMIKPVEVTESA
UniProt Q96CB9: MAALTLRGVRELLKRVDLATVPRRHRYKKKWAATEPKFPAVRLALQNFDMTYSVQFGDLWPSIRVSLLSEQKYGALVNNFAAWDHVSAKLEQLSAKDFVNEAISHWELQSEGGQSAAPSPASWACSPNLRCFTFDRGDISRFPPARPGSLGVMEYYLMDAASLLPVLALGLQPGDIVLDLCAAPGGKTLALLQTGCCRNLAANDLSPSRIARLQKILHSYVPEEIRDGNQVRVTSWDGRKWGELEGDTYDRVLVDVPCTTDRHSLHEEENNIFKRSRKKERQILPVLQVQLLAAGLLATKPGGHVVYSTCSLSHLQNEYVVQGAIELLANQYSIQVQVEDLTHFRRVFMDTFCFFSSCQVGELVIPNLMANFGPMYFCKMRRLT
UniProt O43913: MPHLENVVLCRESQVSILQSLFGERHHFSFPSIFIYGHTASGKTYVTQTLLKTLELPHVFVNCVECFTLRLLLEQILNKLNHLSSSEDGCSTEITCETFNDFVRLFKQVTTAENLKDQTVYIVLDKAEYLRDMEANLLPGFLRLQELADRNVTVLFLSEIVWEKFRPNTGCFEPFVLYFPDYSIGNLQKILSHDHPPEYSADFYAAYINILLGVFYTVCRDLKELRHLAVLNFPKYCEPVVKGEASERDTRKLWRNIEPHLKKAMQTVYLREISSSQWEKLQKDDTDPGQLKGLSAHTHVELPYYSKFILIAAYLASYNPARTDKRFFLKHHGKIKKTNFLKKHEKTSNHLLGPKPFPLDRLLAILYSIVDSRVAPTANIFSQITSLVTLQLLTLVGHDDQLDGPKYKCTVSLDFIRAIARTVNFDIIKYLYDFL
UniProt Q02818: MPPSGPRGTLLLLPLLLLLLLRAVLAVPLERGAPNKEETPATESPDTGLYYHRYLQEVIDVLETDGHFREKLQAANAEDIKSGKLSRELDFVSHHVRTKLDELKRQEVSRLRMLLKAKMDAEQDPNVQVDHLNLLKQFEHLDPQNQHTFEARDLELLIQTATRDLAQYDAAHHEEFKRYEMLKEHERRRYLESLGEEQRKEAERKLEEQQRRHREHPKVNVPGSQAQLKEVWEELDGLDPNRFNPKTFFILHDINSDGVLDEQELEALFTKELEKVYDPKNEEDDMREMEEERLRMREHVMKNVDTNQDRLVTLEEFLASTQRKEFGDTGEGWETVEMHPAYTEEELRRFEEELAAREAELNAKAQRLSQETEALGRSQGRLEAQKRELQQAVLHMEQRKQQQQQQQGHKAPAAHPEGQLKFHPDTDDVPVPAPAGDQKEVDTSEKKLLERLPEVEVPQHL
UniProt Q8TB37: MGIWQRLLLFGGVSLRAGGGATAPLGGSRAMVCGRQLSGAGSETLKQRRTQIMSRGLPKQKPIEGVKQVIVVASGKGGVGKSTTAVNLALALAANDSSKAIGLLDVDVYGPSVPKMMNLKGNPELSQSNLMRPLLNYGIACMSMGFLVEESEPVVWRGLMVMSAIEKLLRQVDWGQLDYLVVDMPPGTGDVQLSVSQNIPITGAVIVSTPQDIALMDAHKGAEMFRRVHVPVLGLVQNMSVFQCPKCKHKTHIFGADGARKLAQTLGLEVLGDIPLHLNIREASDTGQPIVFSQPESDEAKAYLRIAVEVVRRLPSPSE
UniProt Q6PK18: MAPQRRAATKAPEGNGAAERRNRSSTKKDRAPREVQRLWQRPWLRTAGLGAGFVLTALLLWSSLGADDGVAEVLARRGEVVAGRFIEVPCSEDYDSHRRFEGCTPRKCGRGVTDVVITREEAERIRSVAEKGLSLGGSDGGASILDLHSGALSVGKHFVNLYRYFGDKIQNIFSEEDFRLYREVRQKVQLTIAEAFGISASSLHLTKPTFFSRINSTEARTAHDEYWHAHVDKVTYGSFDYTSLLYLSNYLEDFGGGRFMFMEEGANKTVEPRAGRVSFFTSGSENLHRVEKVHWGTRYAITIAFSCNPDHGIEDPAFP
UniProt Q8TEA1: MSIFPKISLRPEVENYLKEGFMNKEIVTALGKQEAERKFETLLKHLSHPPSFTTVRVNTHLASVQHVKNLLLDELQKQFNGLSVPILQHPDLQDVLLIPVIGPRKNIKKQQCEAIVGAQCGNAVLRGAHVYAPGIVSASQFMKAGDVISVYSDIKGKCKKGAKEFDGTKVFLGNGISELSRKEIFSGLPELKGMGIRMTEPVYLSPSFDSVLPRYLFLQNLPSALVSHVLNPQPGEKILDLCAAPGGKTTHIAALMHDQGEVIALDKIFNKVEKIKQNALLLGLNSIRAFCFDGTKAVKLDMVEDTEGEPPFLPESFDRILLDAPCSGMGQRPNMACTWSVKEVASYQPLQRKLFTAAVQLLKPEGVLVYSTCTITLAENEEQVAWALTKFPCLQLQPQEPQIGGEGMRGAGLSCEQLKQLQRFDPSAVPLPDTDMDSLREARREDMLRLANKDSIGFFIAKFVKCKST
UniProt Q9H8K7: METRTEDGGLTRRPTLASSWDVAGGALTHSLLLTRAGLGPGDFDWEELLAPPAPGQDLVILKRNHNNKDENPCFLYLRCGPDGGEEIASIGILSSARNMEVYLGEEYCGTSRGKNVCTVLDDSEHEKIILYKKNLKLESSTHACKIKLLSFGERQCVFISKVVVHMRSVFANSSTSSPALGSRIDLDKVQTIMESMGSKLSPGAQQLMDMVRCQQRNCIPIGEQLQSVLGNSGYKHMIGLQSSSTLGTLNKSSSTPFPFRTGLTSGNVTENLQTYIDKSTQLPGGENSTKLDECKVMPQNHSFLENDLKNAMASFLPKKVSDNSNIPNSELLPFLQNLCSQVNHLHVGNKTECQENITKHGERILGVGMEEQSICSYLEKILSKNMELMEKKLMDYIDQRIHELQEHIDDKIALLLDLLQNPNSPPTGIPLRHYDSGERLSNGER
UniProt Q9UQ80: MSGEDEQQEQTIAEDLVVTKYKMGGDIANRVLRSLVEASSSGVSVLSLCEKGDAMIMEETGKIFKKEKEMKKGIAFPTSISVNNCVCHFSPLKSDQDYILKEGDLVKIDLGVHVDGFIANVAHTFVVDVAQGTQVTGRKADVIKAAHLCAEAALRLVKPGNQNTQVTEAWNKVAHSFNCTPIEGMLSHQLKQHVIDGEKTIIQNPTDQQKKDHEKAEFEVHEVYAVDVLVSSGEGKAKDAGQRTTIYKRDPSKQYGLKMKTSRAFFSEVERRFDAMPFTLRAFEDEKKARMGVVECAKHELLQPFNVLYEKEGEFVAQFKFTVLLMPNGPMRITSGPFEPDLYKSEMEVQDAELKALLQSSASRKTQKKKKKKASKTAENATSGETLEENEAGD
UniProt Q96DE0: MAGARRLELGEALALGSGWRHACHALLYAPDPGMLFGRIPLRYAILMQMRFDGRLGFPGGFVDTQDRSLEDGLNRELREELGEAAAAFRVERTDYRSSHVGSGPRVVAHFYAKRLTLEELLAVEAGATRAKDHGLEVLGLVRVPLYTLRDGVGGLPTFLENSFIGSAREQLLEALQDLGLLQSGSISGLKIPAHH
UniProt Q9NZT2: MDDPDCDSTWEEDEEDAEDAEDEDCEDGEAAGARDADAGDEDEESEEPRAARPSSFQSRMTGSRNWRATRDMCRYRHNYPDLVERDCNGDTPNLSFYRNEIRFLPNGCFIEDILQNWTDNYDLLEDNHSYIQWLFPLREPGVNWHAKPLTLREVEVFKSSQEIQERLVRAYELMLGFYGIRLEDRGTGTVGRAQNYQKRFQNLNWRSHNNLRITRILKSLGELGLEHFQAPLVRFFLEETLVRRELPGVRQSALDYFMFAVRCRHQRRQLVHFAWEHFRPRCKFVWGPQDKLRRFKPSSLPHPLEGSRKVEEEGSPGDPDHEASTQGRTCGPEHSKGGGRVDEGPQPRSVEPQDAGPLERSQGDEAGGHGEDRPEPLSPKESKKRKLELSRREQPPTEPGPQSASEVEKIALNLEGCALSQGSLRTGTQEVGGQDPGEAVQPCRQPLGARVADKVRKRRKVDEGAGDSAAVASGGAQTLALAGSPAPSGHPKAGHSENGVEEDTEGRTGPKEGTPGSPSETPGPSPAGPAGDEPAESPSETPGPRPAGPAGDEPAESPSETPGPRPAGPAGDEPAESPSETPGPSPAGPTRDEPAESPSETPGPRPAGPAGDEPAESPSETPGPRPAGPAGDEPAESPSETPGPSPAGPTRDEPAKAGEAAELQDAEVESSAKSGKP
UniProt P11940, whole entry, looked up: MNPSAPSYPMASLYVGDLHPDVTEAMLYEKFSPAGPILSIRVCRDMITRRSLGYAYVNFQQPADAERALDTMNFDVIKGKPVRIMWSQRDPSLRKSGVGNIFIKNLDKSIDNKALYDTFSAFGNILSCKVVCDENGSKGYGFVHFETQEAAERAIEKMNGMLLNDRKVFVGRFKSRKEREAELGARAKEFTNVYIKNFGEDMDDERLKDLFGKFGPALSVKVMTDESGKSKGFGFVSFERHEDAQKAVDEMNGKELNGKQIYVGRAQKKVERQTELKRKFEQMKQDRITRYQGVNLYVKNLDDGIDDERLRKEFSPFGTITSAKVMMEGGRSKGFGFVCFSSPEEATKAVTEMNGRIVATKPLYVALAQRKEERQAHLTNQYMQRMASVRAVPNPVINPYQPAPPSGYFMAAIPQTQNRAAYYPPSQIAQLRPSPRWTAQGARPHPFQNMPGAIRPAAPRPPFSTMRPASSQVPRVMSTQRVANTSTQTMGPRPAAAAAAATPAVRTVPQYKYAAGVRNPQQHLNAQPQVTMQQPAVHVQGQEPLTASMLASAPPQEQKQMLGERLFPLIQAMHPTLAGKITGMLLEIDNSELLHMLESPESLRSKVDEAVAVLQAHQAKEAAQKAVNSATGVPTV
UniProt Q9BRJ7: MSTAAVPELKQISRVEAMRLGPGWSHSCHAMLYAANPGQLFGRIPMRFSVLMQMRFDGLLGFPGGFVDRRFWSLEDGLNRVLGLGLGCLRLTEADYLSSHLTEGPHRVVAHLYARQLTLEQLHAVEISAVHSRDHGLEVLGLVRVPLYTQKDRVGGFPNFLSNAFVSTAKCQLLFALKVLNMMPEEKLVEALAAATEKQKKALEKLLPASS

Tests used:
Assay in all cases: log2 fold change, soluble protein after heating vs DMSO (PISA); higher = thermal stabilisation; K562 cells, 10 uM, 30 min; active = over 0.2 and 3.5 SD of the protein, either way, in both replicates (recomputed)
[1] = compound: C1=CC=C(C=C1)[C@H](COC2=CC3=C(C=C2)NC(=O)N3)NC(=O)C4=CC=CN(C4=O)CC5=CC(=C(C=C5)F)F
Summary of the method: (§1)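 K562 cells at 2×10^6 cells/mL were exposed to 10 μM compound for 30 min, then aliquots were heated for 3 min across 48°C-58°C, pooled, and extracted in PBS containing 0.5% NP-40 at 4°C. The supernatant after 21,000xg for 90 min was taken as soluble protein and measured by TMTpro 16plex LC-MS/MS with channel sums equalised. Thermal stability is reported relative to control samples, with values from duplicates. Fold changes are given on a log2 scale.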

[2] = compound: CC1=C(SC2=C1C(=N[C@H](C3=NN=C(N32)C)CC(=O)N)C4=CC=C(C=C4)Cl)C
Summary of the method: as §1

[3] = compound: CC1=C2C(=CC=C1)N=C(N(C2=O)C3=CC=CC=C3C)CN4C=NC5=C(N=CN=C54)N
Summary of the method: as §1

[4] = compound: Cc1sc2c(c1C)C(c1ccc(Cl)cc1)=N[C@@H](CC(=O)OC(C)(C)C)c1nnc(C)n1-2
Summary of the method: as §1

[5] = compound: c1ccc([C@@H]2C[C@H]2NC2CCNCC2)cc1
Summary of the method: as §1

Measured: log2 fold change

NUSAP1 (UniProt Q9BXS6)
inactive: [1] -0.05 | [2] -0.197 | [3] 0.119 | [4] 0.116 | [5] 0.025

OGT (UniProt O15294)
inactive: [1] 0 | [2] 0.008 | [3] 0.037 | [4] -0.016 | [5] -0.005

NSUN4 (UniProt Q96CB9)
inactive: [1] -0.015 | [2] 0.013 | [3] -0.06 | [4] 0.068 | [5] -0.041

ORC5 (UniProt O43913)
inactive: [1] -0.081 | [2] 0.02 | [3] 0.144 | [4] -0.016 | [5] -0.044

NUCB1 (UniProt Q02818)
inactive: [1] 0 | [2] 0.031 | [3] -0.009 | [4] 0.014 | [5] 0.057

NUBPL (UniProt Q8TB37)
inactive: [1] -0.027 | [2] -0.061 | [3] 0.006 | [4] -0.038 | [5] 0.01

OTUD5 isoform 5 (UniProt Q96G74)
inactive: [1] 0.043 | [2] 0.069 | [3] -0.033 | [4] 0.067 | [5] -0.001

NSMCE4A (UniProt Q9NXX6)
inactive: [1] 0.123 | [2] 0.03 | [3] -0.088 | [4] -0.037 | [5] -0.014

OGFOD3 isoform 2 (UniProt Q6PK18)
inactive: [1] 0.081 | [2] -0.043 | [3] -0.011 | [4] -0.002 | [5] -0.071

NSUN6 (UniProt Q8TEA1)
inactive: [1] -0.014 | [2] 0.034 | [3] 0.053 | [4] -0.002 | [5] -0.034

NUP88 (UniProt Q99567)
inactive: [1] -0.069 | [2] -0.069 | [3] -0.003 | [4] -0.004 | [5] -0.03

Random excerpt: 2 entries already listed
NSUN6 (UniProt Q8TEA1)
inactive: [1] -0.014 | [2] 0.034 | [3] 0.053 | [4] -0.002 | [5] -0.034

NSMCE4A (UniProt Q9NXX6)
inactive: [1] 0.123 | [2] 0.03 | [3] -0.088 | [4] -0.037 | [5] -0.014

The results go on.

PAAT (UniProt Q9H8K7)
inactive: [1] -0.166 | [2] 0.055 | [3] -0.007 | [4] 0.125 | [5] 0.013

OXSM (UniProt Q9NWU1)
inactive: [1] 0.072 | [2] -0.007 | [3] 0.045 | [4] -0.007 | [5] 0.036

PA2G4 (UniProt Q9UQ80)
inactive: [1] -0.049 | [2] 0.006 | [3] 0.013 | [4] 0.019 | [5] -0.076

NUDT16 (UniProt Q96DE0)
inactive: [1] 0.029 | [2] 0.085 | [3] -0.045 | [4] -0.075 | [5] -0.006

NUDT8 (UniProt Q8WV74)
inactive: [1] -0.022 | [2] 0.125 | [3] 0.153 | [4] 0.123 | [5] -0.045

OGFR (UniProt Q9NZT2)
inactive: [1] -0.016 | [2] -0.057 | [3] 0.016 | [4] 0.095 | [5] -0.046

NUBP2 (UniProt Q9Y5Y2)
inactive: [1] -0.011 | [2] 0.063 | [3] 0.03 | [4] 0.004 | [5] -0.049

PABPC1 (UniProt P11940)
inactive: [1] 0.069 | [2] -0.06 | [3] -0.048 | [4] 0.142 | [5] 0.025

NUP98 (UniProt P52948)
inactive: [1] -0.041 | [2] 0.032 | [3] 0.071 | [4] -0.005 | [5] -0.011

NUMB (UniProt P49757)
inactive: [1] 0 | [2] 0.035 | [3] 0.046 | [4] 0.023 | [5] -0.009

NUDT16L1 (UniProt Q9BRJ7)
inactive: [1] -0.067 | [2] 0.032 | [3] 0.006 | [4] 0.049 | [5] -0.01

ORC4 (UniProt O43929)
inactive: [1] -0.098 | [2] 0.008 | [3] 0.118 | [4] 0.005 | [5] 0.012

NUFIP2 (UniProt Q7Z417)
inactive: [1] 0.032 | [2] -0.17 | [3] -0.119 | [4] 0.126 | [5] 0.103
